Data reported in patent US7638508B2, “Glucocorticosteroid compound having anti-inflammatory activity” (Glaxo Group Limited, priority 2003, dated 2009).
Some entries share one result that the patent states for a list of compounds.

Molecular target: T1, glucocorticoid receptor (Homo sapiens, UniProt P04150)
T1 sequence (P04150 1-777): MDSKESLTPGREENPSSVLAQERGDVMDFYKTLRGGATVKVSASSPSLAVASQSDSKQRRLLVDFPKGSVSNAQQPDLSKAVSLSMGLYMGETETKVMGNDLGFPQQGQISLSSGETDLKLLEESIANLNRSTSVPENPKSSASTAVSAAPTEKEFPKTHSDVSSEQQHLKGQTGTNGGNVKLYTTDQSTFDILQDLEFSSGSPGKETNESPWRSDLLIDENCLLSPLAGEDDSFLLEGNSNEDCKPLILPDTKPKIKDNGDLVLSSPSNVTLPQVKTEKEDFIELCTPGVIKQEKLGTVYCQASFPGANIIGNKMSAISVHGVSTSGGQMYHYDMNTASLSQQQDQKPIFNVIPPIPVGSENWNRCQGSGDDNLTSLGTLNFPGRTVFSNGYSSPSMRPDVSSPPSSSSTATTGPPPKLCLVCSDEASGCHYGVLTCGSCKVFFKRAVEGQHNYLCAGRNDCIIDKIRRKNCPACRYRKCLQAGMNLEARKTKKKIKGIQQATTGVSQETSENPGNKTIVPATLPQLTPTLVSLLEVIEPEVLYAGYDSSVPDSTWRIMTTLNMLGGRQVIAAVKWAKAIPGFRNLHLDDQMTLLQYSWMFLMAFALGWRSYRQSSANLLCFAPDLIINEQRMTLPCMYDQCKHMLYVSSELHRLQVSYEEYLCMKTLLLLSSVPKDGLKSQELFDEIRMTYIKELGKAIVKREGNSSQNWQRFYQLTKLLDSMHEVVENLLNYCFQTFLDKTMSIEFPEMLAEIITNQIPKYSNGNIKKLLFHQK
Assay: MMTV-LTR renilla luciferase reporter assay in A549 cells (direct transactivation of gene expression)
Format: cell-based
Conditions: 6 hour at 37° C.
Experimental: Pharmacological activity may be assessed in functional in vitro assays of glucocorticoid agonist activity.
The functional assay based on that described by R. J. H. Austin et al., Eur Resp J. (2002), 20, 1386-1392 measures the ability of compounds to directly transactivate gene expression. A549 cells stably transfected with a reporter gene containing the glucocorticoid responsive region of the mouse mammary tumour virus long terminal repeat (MMTV-LTR) coupled to renilla luciferase were treated with test compounds at appropriate doses for 6 hour at 37° C. The amount of luciferase activity present within the cells is then determined by measuring the light emitted following incubation with a suitable substrate.

SMILES | maximal response relative to Dexamethasone (100%)
CC1CC2C3CC(F)C4=CC(=O)C=CC4(C)C3(F)C(O)CC2(C)C1(OC(=O)C1C(C)(C)C1(C)C)C(=O)SCC#N (stereo not drawn) [Example 1, 6α,9α-Difluoro-11β-hydroxy-16α-methyl-3-oxo-17α-(2,2,3,3-tetramethycyclopropylcarbonyl)oxy-androsta-1,4-diene-17β-carbothioic Acid S-cyanomethyl Ester] | < 20%
C[C@@H]1C[C@H]2[C@@H]3C[C@H](F)C4=CC(=O)C=C[C@]4(C)[C@@]3(F)[C@@H](O)C[C@]2(C)[C@@]1(OC(=O)C1CCCCC1)C(=O)OCC#N [Example 5, 17α-(Cyclohexylcarbonyl)oxy-6α,9α-difluoro-11β-hydroxy-16α-methyl-3-oxo-androsta-1,4-diene-17β-carboxylic Acid cyanomethyl Ester] | < 20%
CC1CC2C3CC(F)C4=CC(=O)C=CC4(C)C3(F)C(O)CC2(C)C1(OC(=O)c1c(F)cccc1F)C(=O)OCC#N (stereo not drawn) [Example 6, 6α,9α-Difluoro-17α-(2,6-difluorobenzoyl)oxy-11β-hydroxy-16α-methyl-3-oxo-androsta-1,4-diene-17β-carboxylic Acid cyanomethyl Ester] | < 20%
CC1CC2C3CC(F)C4=CC(=O)C=CC4(C)C3(F)C(O)CC2(C)C1(OC(=O)CC1CCCC1)C(=O)OCC#N (stereo not drawn) [Example 9, 17α-(Cyclopentylmethylcarbonyl)oxy-6α,9α-difluoro-11β-hydroxy-16α-methyl-3-oxo-androsta-1,4-diene-17β-carboxylic Acid Cyanomethyl Ester] | < 20%
CC1CC2C3CC(F)C4=CC(=O)C=CC4(C)C3(F)C(O)CC2(C)C1(OC(=O)CC(C)(C)C)C(=O)OCC#N (stereo not drawn) [Example 10, 6α,9α-Difluoro-17α-(3,3-dimethylbutanoyl)oxy-11β-hydroxy-16α-methyl-3-oxo-androsta-1,4-diene-17β-carboxylic Acid Cyanomethyl Ester] | < 20%
CC(C)c1nc(C(=O)O[C@]2(C(=O)OCC#N)[C@H](C)C[C@H]3[C@@H]4C[C@H](F)C5=CC(=O)C=C[C@]5(C)[C@@]4(F)[C@@H](O)C[C@@]32C)cs1 [Example 11, 6α,9α-Difluoro-11β-hydroxy-17α-(2-isopropyl-1,3-thiazole-4-carbonyl)oxy-16α-methyl-3-oxo-androsta-1,4-diene-17β-carboxylic Acid Cyanomethyl Ester] | < 20%
CSc1ccc(C(=O)O[C@]2(C(=O)OCC#N)[C@H](C)C[C@H]3[C@@H]4C[C@H](F)C5=CC(=O)C=C[C@]5(C)[C@@]4(F)[C@@H](O)C[C@@]32C)s1 [Example 15, 6α,9α-Difluoro-11β-hydroxy-16α-methyl-17α-(5-methylthio-thiophene-2-carbonyl)oxy-3-oxo-androsta-1,4-diene-17β-carboxylic Acid Cyanomethyl Ester] | < 20%
CCc1cc(C(=O)OC2(C(=O)OCC#N)C(C)CC3C4CC(F)C5=CC(=O)C=CC5(C)C4(F)C(O)CC32C)no1 (stereo not drawn) [Example 16, 6α,9α-Difluoro-17α-(5-ethyl-isoxazole-3-carbonyl)oxy-11β-hydroxy-16α-methyl-3-oxo-androsta-1,4-diene-17β-carboxylic Acid Cyanomethyl Ester] | < 20%
CC1CC2C3CCC4=CC(=O)C=CC4(C)C3(F)C(O)CC2(C)C1(OC(=O)C1C(C)(C)C1(C)C)C(=O)OCC#N (stereo not drawn) [Example 17, 9α-Fluoro-11β-hydroxy-16β-methyl-3-oxo-17α-(2,2,3,3-tetramethylcyclopropylcarbonyl)oxy-androsta-1,4-diene-17 b-carboxylic Acid cyanomethyl ester] | < 20%
